In patent publication US20090281040A1, “Methods For Treating Endoplasmic Reticulum (ER) Stress Disorders” (priority 2008, published 2009):
Some of these results come from one statement about several compounds together. Some ranges recur; such a range may be that of the whole group of compounds.

Legend:
[1] = test system: AATF mRNA; assay: AATF mRNA by real-time PCR in wild-type, Ire1α−/− and Perk−/− mouse embryonic fibroblasts; format: cell-based; settings: TM 5 μg/ml, Tg 1 μM, 16 hr
Description: (§1) Real-time polymerase chain reaction. Total RNA was isolated from cells using RNeasy Mini Kit (Qiagen) and reverse transcribed using 1 μg of total RNA from cells with Oligo-dT primer. For the thermal cycle reaction, the iQ5 system (BioRad, Hercules, Calif.) was used at 95° C. for 10 min, 40 cycles at 95° C. for 10 sec, and at 55° C. for 30 sec.
(§2) The relative amount for each transcript was calculated by a standard curve of cycle thresholds for serial dilutions of cDNA samples and normalized to the amount of actin. The polymerase chain reaction (PCR) was done in triplicate for each sample, after which all experiments were repeated twice. The following sets of primers and Power SYBR Green PCR Master Mix (Applied Biosystems, Foster City, Calif.) were used for real-time PCR:
The pathway by which AATF expression is regulated was investigated. IRE 1 and PERK are ER-resident protein kinases and regulators of the UPR. The expression levels of AATF were measured by real-time PCR in Ire1α^−/− and Perk^−/− mouse embryonic fibroblasts under ER stress conditions. […] To confirm this, Perk^−/− mouse embryonic fibroblasts were transfected with PERK expression plasmid, then AATF gene expression was measured. Chop expression was also measured as a control. PERK expression could restore both AATF and Chop expression (FIG. 2D).

[2] = test system: Akt1 mRNA; assay: Akt1 mRNA expression by real-time PCR; format: cell-based, rat; mouse; settings: INS-1 832/13, neuro2A and mouse embryonic fibroblasts; 16 hr; TM 5 μg/ml, Tg 1 μM, MG132 2 μM, STR 0.05 and 0.01 μM
Description: as §1, §2
Whether Akt1 expression is increased by ER stress was examined. The expression levels of Akt1 mRNA were measured in the presence of ER stress in INS-1 832/13, neuro2A, and mouse embryonic fibroblasts.

SMILES: C/C=C(/C)C(=O)O[C@H]1C(C)=C2[C@H]([C@@H]1OC(=O)CCCCCCC)[C@@](C)(OC(C)=O)C[C@H](OC(=O)CCC)[C@@]1(O)[C@H]2OC(=O)[C@@]1(C)O [thapsigargin]
- increase of AATF mRNA expression levels [1]: 2-3 fold
- increase of Akt1 mRNA expression [2]: 1.5-2 fold
